Protein sequences, listed by entry. Tags and fused reporters are not part of them. Lines headed by an entry give the natural chain unless they say otherwise; changes in a name come on top.
UniProt P51450: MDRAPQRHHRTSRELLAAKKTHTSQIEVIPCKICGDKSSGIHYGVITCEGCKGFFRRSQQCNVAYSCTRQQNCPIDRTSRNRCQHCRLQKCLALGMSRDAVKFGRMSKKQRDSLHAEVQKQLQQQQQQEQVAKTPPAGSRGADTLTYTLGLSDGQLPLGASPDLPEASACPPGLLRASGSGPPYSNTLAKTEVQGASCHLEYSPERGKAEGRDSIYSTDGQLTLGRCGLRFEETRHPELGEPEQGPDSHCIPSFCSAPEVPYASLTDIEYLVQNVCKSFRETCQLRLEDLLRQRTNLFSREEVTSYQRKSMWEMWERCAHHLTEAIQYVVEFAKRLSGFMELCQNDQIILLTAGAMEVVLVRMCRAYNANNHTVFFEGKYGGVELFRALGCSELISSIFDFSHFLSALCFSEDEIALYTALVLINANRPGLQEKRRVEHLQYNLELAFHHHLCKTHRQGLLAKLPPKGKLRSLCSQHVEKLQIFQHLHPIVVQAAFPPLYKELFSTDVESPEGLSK

Among all 310,000 compounds or so, about 17,000 (5.5%) were called active. The inconclusive results got no clear call from the source; some entries with a clear call stand among them for comparison. Calls come from the whole dose curve; as a rule, active = well fitted inhibition curve with a large enough effect; inconclusive = small, poorly fitted or top-dose-only effect, or effect the other way; inactive = no such curve, though single readings can be large or run the other way. Potencies of inconclusive entries are doubtful fits and often do not repeat.
What follows are compounds tested against Nuclear receptor ROR-gamma (Mus musculus) (UniProt P51450) (assay: qHTS for inhibitors of ROR gamma transcriptional activity). Settings: Drosophila S2 Gal4-RORgamma UAS-luciferase reporter, 20 h; activity change, negative = inhibition: at 53.6 µM (top of the series).
In short: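 Compounds are pin-transferred onto Drosophila Schneider cells expressing a copper-inducible Gal4–ROR gamma transactivation domain fusion. After 1 hr, copper sulfate is added to 700 uM final; luciferase is read 20 hr later.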
Cc1ccn2cc(-c3ccc(NS(=O)(=O)c4ccccc4)cc3)nc2c1 was tested, and the Potency was inconclusive: 10 µM [activator, partial curve].
In the case of C=CCOc1c(Br)cc(/C=N/Nc2ccc(C(=O)O)cc2)cc1OCC, the Potency was inconclusive: 31.6 µM [activator, single point].
In the case of O=C(Nc1ccn(Cc2ccccc2)n1)c1n[nH]c([N+](=O)[O-])c1Cl, the Potency was active: 7.08 µM.
Cc1[nH]nc(-c2ccc(O)c(C)c2O)c1Oc1ccccc1 was tested, and the Potency was inconclusive: 22.4 µM [inhibitor, single point].
In the case of Cc1ccc(OCCOCCOc2ccc(Br)cc2/C=N\NC(=O)c2ccncc2)cc1, the Potency was inconclusive: 35.5 µM [inhibitor, single point].
In the case of CCCN1C(=O)CN(C2CCCCCC2)C(=O)C1c1ccc(C)cc1 (stereo not given), the “activity change, negative = inhibition” value was inactive: 42.8%.
For CCCc1cc(=O)[nH]c(Nc2ccc3c(c2)OCCO3)n1, the Potency was inconclusive: 10 µM [activator, partial curve].
For Cc1nc2ccccc2nc1SCC(=O)N1CCC(C)CC1, the Potency was inconclusive: 20 µM [activator, single point].
O=C(NCCc1cccc(Cl)c1)c1cccs1 was tested, and the Potency was inconclusive: 2.51 µM [activator, full curve, poor fit].
With O=C(NCc1cccnc1)c1ccc(COc2ccccc2Br)cc1 the Potency was inconclusive: 35.5 µM [inhibitor, single point].
For CC(=O)c1sc(NC(=O)C2(F)C(F)(F)C(F)(F)C(F)(F)C(F)(F)C2(F)F)nc1C, the Potency was active: 3.98 µM.
For COc1ccc2cc(CN(Cc3cccs3)Cc3nnnn3Cc3ccccc3)c(=O)[nH]c2c1, the Potency was inconclusive: 17.8 µM [activator, partial curve].
In the case of Cc1ccc(CNCC(=O)Nc2ccc(N3CCOCC3)cc2)cc1, the “activity change, negative = inhibition” value was inactive: 5.06%.
CCc1c(C)nc2cc(-c3ccc(Cl)cc3)[nH]n2c1=O was tested, and the Potency was inconclusive: 17.8 µM [activator, partial curve].
For CCOc1ccccc1CN1CCC(CO)(CCOc2ccccc2)CC1, the Potency was inconclusive: 31.6 µM [inhibitor, single point].
In the case of CC(=O)c1ccc(OCCCC(=O)Nc2ccc(C)c(S(=O)(=O)N(C)C)c2)cc1, the Potency was inconclusive: 35.5 µM [activator, single point].
In the case of CC(=O)Oc1ccccc1C1=NN(C(C)=O)C(c2ccccc2)C1 (stereo not given), the Potency was inconclusive: 0.112 µM [inhibitor, full curve, poor fit].
With Oc1ccc2ccccc2c1-c1sc(Nc2ccccc2)n[n+]1-c1ccc(F)cc1 the “activity change, negative = inhibition” value was inactive: -7.43%.
COc1cc(OC)c(NS(=O)(=O)c2c(C(=O)N3CCCCC3)c(C)n(C)c2C)cc1Cl was tested, and the “activity change, negative = inhibition” value was inactive: 10.9%.
For Cc1ccc(C)c(NC(=S)NNc2ccc(F)cc2F)c1, the Potency was inconclusive: 7.08 µM [inhibitor, full curve, poor fit].
COc1cc(CCN2C(=O)c3cccc4cccc(c34)C2=O)c(S(=O)(=O)N2CCCCCC2)cc1OC was tested, and the “activity change, negative = inhibition” value was inactive: 34.4%.
With COc1ccc(/C=N/NC(=O)c2ccc(N(C)S(=O)(=O)c3ccccc3)cc2)c(OC)c1 the Potency was active: 10 µM.
For COc1cc(-c2nnc3n2CCCCC3)cc(OC)c1OC, the “activity change, negative = inhibition” value was inactive: 0.233%.
With CCOC(=O)CC(=O)CSc1ncnc2c1cnn2-c1ccccc1 the Potency was inconclusive: 12.6 µM [inhibitor, single point].
CCN(CC)c1ccc(/C=N/NC(=O)c2ccoc2C)c(O)c1 was tested, and the Potency was active: 0.501 µM.
COc1ccc(Cl)cc1NC(=O)Nc1cc(C)on1 was tested, and the Potency was inconclusive: 20 µM [inhibitor, single point].
In the case of N#CC1=C(S)N=C(N)C(c2nc(-c3ccccc3)cs2)C12CCCCC2 (stereo not given), the Potency was active: 10 µM.
In the case of Cc1nc(C)c(C(=O)N2CCCC(C(=O)c3ccc4ccccc4c3)C2)s1 (stereo not given), the Potency was inconclusive: 14.1 µM [activator, partial curve].
With Cc1ccc(/C=N/NC(=O)c2cc(C3CC3)nc3ccccc23)o1 the Potency was inconclusive: 15.8 µM [inhibitor, single point].
For CCOc1ccc2nc(N/C(N)=N/C(=S)Nc3ccc(OC)cc3)nc(C)c2c1, the Potency was active: 1.58 µM.
For CC(=O)N1CCOc2ccc(S(=O)(=O)N(C)c3cccc(C)c3)cc21, the “activity change, negative = inhibition” value was inactive: -18.8%.
For CC(C)c1ccc(NS(=O)(=O)c2ccc(Cl)nc2)cc1, the “activity change, negative = inhibition” value was inactive: 7.02%.
In the case of Cn1c(CNc2ccccc2)nc2ccccc21, the “activity change, negative = inhibition” value was inactive: -14.1%.
With COc1ccccc1-c1c(C(F)(F)F)oc2cc(OCC(=O)Nc3cc(C)ccc3C)ccc2c1=O the “activity change, negative = inhibition” value was inactive: 109%.
With CCOn1c(=O)c(-c2ccc(C)cc2)[n+]([O-])c2ccccc21 the “activity change, negative = inhibition” value was inactive: -5.32%.
O=C(c1ccc(N2CCN(C(=O)c3ccc(F)c(F)c3)CC2)cc1)c1cccc(F)c1 was tested, and the Potency was active: 1.78 µM.
c1ccc(Cc2noc(CN3CCCC(CN4CCOCC4)C3)n2)cc1 (stereo not given) was tested, and the “activity change, negative = inhibition” value was inactive: 5.21%.
For Cc1c(NC(=O)Nc2cccs2)cccc1[N+](=O)[O-], the Potency was inconclusive: 35.5 µM [inhibitor, single point].
For CCC(=O)Nc1ccc2c(c1)ncn2-c1ccc(OC)cc1, the Potency was inconclusive: 3.16 µM [activator, full curve].
For Cc1nn2c(NCCN(C)C)c3c(nc2c1-c1ccccc1)CCC3, the Potency was active: 0.141 µM.
CC12CC3(C)CC(C)(C1)CC(C(=O)NC(=S)N1CCCC1)(C2)C3 was tested, and the “activity change, negative = inhibition” value was inactive: 24.6%.
In the case of COc1ccc(C(=O)Nc2ccc3ccccc3n2)c(OC)c1OC, the Potency was active: 8.91 µM.
Nc1ccc(C(=O)N/N=C/c2cn(Cc3ccccc3F)c3ccccc23)cc1 was tested, and the Potency was active: 14.1 µM.
In the case of COc1ccc(-c2cn3c(C)c(C(=O)Nc4cc(NC(C)=O)ccc4OC)sc3n2)cc1, the Potency was active: 12.6 µM.
In the case of Cn1c(=O)c2c(nc(NCc3ccco3)n2Cc2ccc(Cl)cc2Cl)n(C)c1=O, the Potency was inconclusive: 31.6 µM [inhibitor, single point].
With CCOC(=O)N1CCN(C(=O)c2cc3c(-c4cccc(OC)c4)nn(C)c3s2)CC1 the Potency was inconclusive: 1.12 µM [activator, full curve, poor fit].
CC(C(=O)NC1C=CS(=O)(=O)C1)N1C(=O)/C(=C/c2cccc(Cl)c2)SC1=S (stereo not given) was tested, and the Potency was inconclusive: 22.4 µM [inhibitor, single point].
O=C(c1ccccn1)N1CCN(S(=O)(=O)c2ccccc2)CC1 was tested, and the “activity change, negative = inhibition” value was inactive: -11.7%.
In the case of Cc1ccc(CN(C)C(=O)CCc2nc3sc4c(c3c(=O)[nH]2)CCCC4)o1, the Potency was inconclusive: 12.6 µM [inhibitor, single point].
For CCn1ncc(/C=N\NC(=O)c2csc3ccccc23)c1C, the Potency was active: 10 µM.
In the case of O=C(NCc1ccccn1)c1c(O)c2cccc3c2n(c1=O)CC3, the Potency was active: 2.82 µM.
CCOC(=O)C1CCN(C(=O)c2cc3cc4ccc(OC)cc4nc3o2)CC1 was tested, and the Potency was inconclusive: 28.2 µM [inhibitor, single point].
Cc1ccc2nc(/C(C#N)=C\c3ccc(N4CCCCC4)c([N+](=O)[O-])c3)[nH]c2c1 was tested, and the Potency was inconclusive: 17.8 µM [activator, partial curve].
For CC(C)(C)c1cc(CCC(=O)NCc2cccnc2)cc(C(C)(C)C)c1O, the “activity change, negative = inhibition” value was inactive: -9.61%.
For CCS(=O)(=O)N1Cc2ccccc2CC1C(=O)Nc1nc2ccc(F)cc2s1 (stereo not given), the Potency was active: 4.47 µM.
CCOC(=O)c1ccc(NC(=O)CC2C(=O)OCCN2CC)cc1 (stereo not given) was tested, and the Potency was inconclusive: 35.5 µM [inhibitor, single point].
With CC1C/C(=N/N2C(=O)CSC2=S)CC(C)(C)C1 (stereo not given) the Potency was active: 10 µM.
O=S(=O)(c1ccccc1)N1CCC2(CCCN(Cc3cc(C(F)(F)F)cc(C(F)(F)F)c3)C2)CC1 was tested, and the “activity change, negative = inhibition” value was inactive: -3.16%.
O=[N+]([O-])c1ccc(OCCO)nc1 was tested, and the “activity change, negative = inhibition” value was inactive: -8.06%.
With COc1ccc(Cn2c(-c3ccc(Cl)cc3)c[n+]3ccccc23)cc1 the Potency was inconclusive: 17.8 µM [activator, partial curve, poor fit].
COc1ccc(N(CC(=O)N2CC=C(c3ccccc3)CC2)S(=O)(=O)c2c(C)noc2C)cc1 was tested, and the “activity change, negative = inhibition” value was inactive: 10.8%.
For Nc1c(C(=O)NCc2ccc3c(c2)OCO3)nnn1Cc1ccc(Br)cc1, the Potency was inconclusive: 35.5 µM [inhibitor, single point].
FC(F)(F)c1ccccc1-c1nccc(NCc2cccs2)n1 was tested, and the Potency was inconclusive: 31.6 µM [activator, single point].
In the case of CCn1cc(Cl)c(C(=O)Nc2ccc(OC)c(OC)c2)n1, the Potency was inconclusive: 35.5 µM [activator, single point].
COc1ccc(NC(=O)Cn2c(C)cc(=O)c3cccc(OC)c32)cc1 was tested, and the Potency was inconclusive: 22.4 µM [inhibitor, single point].
With CCCCCCCC/C=C/CCCCCCCCOP(=O)([O-])OCC[N+](C)(C)C the “activity change, negative = inhibition” value was inactive: -5.36%.
For O=C(N/N=C/c1ccccc1Cl)c1cccc(F)c1, the Potency was inconclusive: 22.4 µM [inhibitor, single point].
In the case of Oc1ccccc1N1CCN(C(=S)NCc2ccccc2)CC1, the Potency was inconclusive: 20 µM [activator, partial curve].
With CNC(=S)N/N=C/c1ccc(-c2ccc(Cl)c([N+](=O)[O-])c2)o1 the Potency was active: 4.47 µM.
With Cc1cc(O)c(C(C)C)cc1N=C1CSC(=O)N1 the Potency was inconclusive: 22.4 µM [inhibitor, single point].
CSCC[C@H](NC(=O)C1CCN(S(=O)(=O)c2ccccc2)CC1)C(=O)NC1CC1 was tested, and the “activity change, negative = inhibition” value was inactive: -15.4%.
With CC(C)c1ccc(/C=N/NC(=O)c2c(Cl)cnn2C)cc1 the Potency was inconclusive: 15.8 µM [inhibitor, single point].
CCOC(=O)c1ccc(NC(=O)c2sc3nc(N4CCOCC4)c4c(c3c2N)CCCC4)cc1 was tested, and the “activity change, negative = inhibition” value was inactive: -10.7%.
For Cc1nc2sc(-c3ccccc3)cc2c(=O)n1N, the Potency was active: 7.08 µM.
For CCc1cc(C(=O)N2CCCC(N3CCN(c4cccc(C(F)(F)F)c4)CC3)C2)n(C)n1 (stereo not given), the Potency was inconclusive: 35.5 µM [activator, single point].
% is set by controls: 0 for no effect and ±100 for the full control effect; potency is the fitted concentration of half-maximal effect.
Note: nearly all actives have a fitted effect of over 60% in size.
